Data from publication doi:10.1101/2022.05.03.490446 (bioRxiv, 2022).
No constants are given. Whether binding was seen depends on the method and setting. Some entries that bind do so weakly or less than the wild type.

Sequences of proteins named here, by UniProt entry; tags and fusion partners are left off.
UniProt P0A6F5, whole entry: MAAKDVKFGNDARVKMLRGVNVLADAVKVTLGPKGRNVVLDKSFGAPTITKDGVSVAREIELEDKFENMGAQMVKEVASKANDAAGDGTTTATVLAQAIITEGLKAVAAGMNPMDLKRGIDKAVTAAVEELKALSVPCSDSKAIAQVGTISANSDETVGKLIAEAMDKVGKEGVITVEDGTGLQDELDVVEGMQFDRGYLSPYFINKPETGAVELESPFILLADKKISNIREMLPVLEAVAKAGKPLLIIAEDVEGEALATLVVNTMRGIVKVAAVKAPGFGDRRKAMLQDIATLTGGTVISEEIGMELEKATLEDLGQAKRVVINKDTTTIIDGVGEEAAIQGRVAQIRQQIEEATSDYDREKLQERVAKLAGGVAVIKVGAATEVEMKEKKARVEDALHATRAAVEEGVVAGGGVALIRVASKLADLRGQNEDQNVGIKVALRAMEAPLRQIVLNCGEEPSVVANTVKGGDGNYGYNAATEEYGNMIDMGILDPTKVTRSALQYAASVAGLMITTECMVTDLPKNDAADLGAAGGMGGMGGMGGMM

Target: GroEL (E. coli, UniProt P0A6F5 1-548)
Assay: SEC

binding: binds
B1: unfolded citrate synthase (protein, UniProt P00889 28-464)
chain: ASSTNLKDILADLIPKEQARIKTFRQQHGNTVVGQITVDMMYGGMRGMKGLVYETSVLDPDEGIRFRGYSIPECQKMLPKAKGGEEPLPEGLFWLLVTGQIPTEEQVSWLSKEWAKRAALPSHVVTMLDNFPTNLHPMSQLSAAITALNSESNFARAYAEGIHRTKYWELIYEDCMDLIAKLPCVAAKIYRNLYREGSSIGAIDSKLDWSHNFTNMLGYTDAQFTELMRLYLTIHSDHEGGNVSAHTSHLVGSALSDPYLSFAAAMNGLAGPLHGLANQEVLVWLTQLQKEVGKDVSDEKLRDYIWNTLNSGRVVPGYGHAVLRKTDPRYTCQREFALKHLPHDPMFKLVAQLYKIVPNVLLEQGKAKNPWPNVDAHSGVLLQYYGMTEMNYYTVLFGVSRALGVLAQLIWSRALGFPLERPKSMSTDGLIKLVDSK
